Assay: general procedure: Fmoc solid-phase peptide synthesis; SPPS resin substituted with Fmoc-Ala at 0.33 milliequivalents per gram (0.43 meq/g in one example); PyBOP, HOBT
Settings: conjugation step, TFA salt (peptide)

| Substance | conjugation yield (of theory) | conjugation yield |
| --- | --- | --- |
| Dotriacontakis-{3,5-di-(sodium carboxylatomethylcarbamoyl)-2,4,6-triiodophenyl-carbamoyl} derivative of the lysine-alanine copolymer (K3)8 K4 K2 K-A--OH | 81.6% of theory |  |
| dotriacontakis-{3-(3-sodium carboxylatopropionylamino)-5-(2,3-dihydroxypropylcarbamoyl)-2,4,6-triiodobenzoyl} derivative of the lysine-proline-cysteine-alanine copolymer (K3)8 K4 K2 K-P10 -C-A |  | 83.6% of theory |
| Octatriacontakis-{3-(4-sodium carboxylato-3-oxabutyryl-amino)-5-(2,3-dihydroxy-propylcarbamoyl)-2,4,6-triiodobenzoyl}-tetrakis-(4-sodium carboxylato-3-oxabutyryl) derivative of the lysine-alanine copolymer (K20)2 K-A--OH |  | 89.1% of theory |
| Dotriacontakis-{3,5-bis-(disodium phosphonatomethylcarba-moyl)-2,4,6-triiodaryl-carbamoyl} derivative of the lysine-alanine copolymer (K3)8 K4 K2 K-A--OH |  | 75.9% of theory |
| Octatetracontakis-{N-methoxyacetyl-3-methylamino-5-(2-sodium sulfonatoethylcarbamoyl)-2,4,6-triiodobenzoyl} derivative of the lysine-alanine copolymer (K5)8 K4 K2 K-A--OH |  | 59.8% of theory |
| Dotriacontakis-{3-(3-sodium carboxylatopropionylamino)-5-(2,3-dihydroxypropylcarbamoyl)-2,4,6-triiodobenzoyl} derivative of the lysine-alanine copolymer (K3)8 K4 K2 K-A--OH | 88.1% of theory |  |
| Octatetracontakis-{3-(4-sodium carboxylato-3-oxabutyrylamino)-5-(2,3-dihydroxy-propylcarbamoyl)-2,4,6-triiodobenzoyl} derivative of the lysine-alanine copolymer (K5)8 K4 K2 K-A--OH | 82.6% of theory |  |
| Octatetracontakis-{3-sodium carboxylatoformylamino-5-(2,3-dihydroxypropylcarbamoyl)-2,4,6-triiodobenzoyl} derivative of the lysine-alanine copolymer (K5)8 K4 K2 K-A--OH | 91.4% of theory |  |
